Reference: publication PMC6065180, “An allosteric propofol-binding site in kinesin disrupts kinesin-mediated processive movement on microtubules” (The Journal of Biological Chemistry, 2018)
No constants are given. Whether binding was seen depends on the method and setting. Some entries that bind do so weakly or less than the wild type. Where a sequence is shown, tags or fusion partners need not be part of it. Blank lines part the entries; values can stand above or below the binder they belong to.

By UniProt entry, the sequences of proteins in these tests, tags left out. Where a name states a change or a piece, a line headed by the entry shows the natural chain unless it says otherwise. Chains listed by the source or under a name are the forms on record and can include a tag or linker.
KIF3A-EB1 (mouse KIF3A(Met1-Leu374)-EB1 with StrepII tag) (P28741, form named): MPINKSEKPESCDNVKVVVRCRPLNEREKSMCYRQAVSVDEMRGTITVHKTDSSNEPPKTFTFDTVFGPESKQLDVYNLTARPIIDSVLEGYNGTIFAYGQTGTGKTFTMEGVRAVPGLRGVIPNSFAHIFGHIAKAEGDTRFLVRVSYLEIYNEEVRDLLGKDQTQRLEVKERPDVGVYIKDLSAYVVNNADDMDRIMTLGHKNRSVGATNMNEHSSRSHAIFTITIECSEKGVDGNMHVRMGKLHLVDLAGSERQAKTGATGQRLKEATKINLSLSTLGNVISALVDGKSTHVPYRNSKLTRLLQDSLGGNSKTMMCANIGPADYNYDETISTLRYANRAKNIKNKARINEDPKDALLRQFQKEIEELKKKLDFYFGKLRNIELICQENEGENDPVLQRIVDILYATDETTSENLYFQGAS
KIF3A-AHD (mouse KIF3A(Met1-Glu376) with acidic synthetic heterodimerization helix and StrepII tag) (P28741, form named): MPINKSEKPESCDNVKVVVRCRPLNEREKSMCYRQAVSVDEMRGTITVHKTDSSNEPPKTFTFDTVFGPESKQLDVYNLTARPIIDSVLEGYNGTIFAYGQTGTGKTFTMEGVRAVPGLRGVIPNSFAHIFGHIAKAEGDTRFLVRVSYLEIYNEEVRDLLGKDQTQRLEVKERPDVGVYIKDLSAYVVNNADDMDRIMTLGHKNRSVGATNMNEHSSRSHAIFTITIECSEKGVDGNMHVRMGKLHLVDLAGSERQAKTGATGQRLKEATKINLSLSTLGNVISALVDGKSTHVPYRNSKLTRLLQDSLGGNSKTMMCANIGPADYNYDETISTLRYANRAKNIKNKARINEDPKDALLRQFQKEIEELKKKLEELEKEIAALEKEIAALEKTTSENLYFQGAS

Tests used:
[1] = biological target: KIF3A-EB1 (mouse KIF3A(Met1-Leu374)-EB1 with StrepII tag) (mouse | not stated) (UniProt P28741); experiment: sequential affinity co-purification; the two chains co-expressed in E. coli; clarified lysate on HisTrap Ni-NTA (His8 chain), then the pooled fractions on StrepTactin (StrepII chain); fractions with a 1:1 ratio of the two polypeptides on SDS-PAGE pooled
[2] = biological target: KIF3A-AHD (mouse KIF3A(Met1-Glu376) with acidic synthetic heterodimerization helix and StrepII tag) (mouse) (UniProt P28741); experiment: as above

binding [1]: binds
B1: KIF3C (mouse KIF3C(Met1-Leu396)-EB1 with His8 tag), single chain (domain or fragment, UniProt O35066 1-396)
chain: MASKTKASEALKVVARCRPLSRKEEAAGHEQILTMDVKLGQVTLRNPRAAPGELPKTFTFDAVYDASSKQADLYDETVRPLIDSVLQGFNGTVFAYGQTGTGKTYTMQGTWVEPELRGVIPNAFEHIFTHISRSQNQQYLVRASYLEIYQEEIRDLLSKEPGKRLELKENPETGVYIKDLSSFVTKNVKEIEHVMNLGNQARAVGSTHMNEVSSRSHAIFVITVECSERGSDGQDHIRVGKLNLVDLAGSERQNKAGPNAAGGPATQPTAGGGSGSGSASGSASSGERPKEASKINLSLSALGNVIAALAGNRSTHIPYRDSKLTRLLQDSLGGNAKTIMVATLGPASHSYDESLSTLRFANRAKNIKNKPRVNEDPKDTLLREFQEEIARLKAQLDFYFGKLRNIELICQENEGENDPVLQRIVDILYATDETTSENLYFQGAS

binding [2]: binds
B2: KIF3B-BHD (mouse KIF3B(Met1-Lys371) with basic synthetic heterodimerization helix and His8 tag) (domain or fragment, UniProt Q61771 1-371)
chain: MSKLKSSESVRVVVRCRPMNGKEKAASYDKVVDVDVKLGQVSVKNPKGTSHEMPKTFTFDAVYDWNAKQFELYDETFRPLVDSVLQGFNGTIFAYGQTGTGKTYTMEGVRGDPEKRGVIPNSFDHIFTHISRSQNQQYLVRASYLEIYQEEIRDLLSKDQTKRLELKERPDTGVYVKDLSSFVTKSVKEIEHVMNVGNQNRSVGATNMNEHSSRSHAIFVITIECSEVGLDGENHIRVGKLNLVDLAGSERQAKTGAQGERLKEATKINLSLSALGNVISALVDGKSTHIPYRDSKLTRLLQDSLGGNAKTVMVANVGPASYNVEETLTTLRYANRAKNIKNKPRVNEDPKDALLREFQEEIARLKAQLEKLKEKIAALKEKIAALKETTSENLYFQGAS
